# Primary screen of a compound library

Sequences of proteins named here, by UniProt entry; tags and fusion partners are left off.
UniProt E9BF75, entry or part of it: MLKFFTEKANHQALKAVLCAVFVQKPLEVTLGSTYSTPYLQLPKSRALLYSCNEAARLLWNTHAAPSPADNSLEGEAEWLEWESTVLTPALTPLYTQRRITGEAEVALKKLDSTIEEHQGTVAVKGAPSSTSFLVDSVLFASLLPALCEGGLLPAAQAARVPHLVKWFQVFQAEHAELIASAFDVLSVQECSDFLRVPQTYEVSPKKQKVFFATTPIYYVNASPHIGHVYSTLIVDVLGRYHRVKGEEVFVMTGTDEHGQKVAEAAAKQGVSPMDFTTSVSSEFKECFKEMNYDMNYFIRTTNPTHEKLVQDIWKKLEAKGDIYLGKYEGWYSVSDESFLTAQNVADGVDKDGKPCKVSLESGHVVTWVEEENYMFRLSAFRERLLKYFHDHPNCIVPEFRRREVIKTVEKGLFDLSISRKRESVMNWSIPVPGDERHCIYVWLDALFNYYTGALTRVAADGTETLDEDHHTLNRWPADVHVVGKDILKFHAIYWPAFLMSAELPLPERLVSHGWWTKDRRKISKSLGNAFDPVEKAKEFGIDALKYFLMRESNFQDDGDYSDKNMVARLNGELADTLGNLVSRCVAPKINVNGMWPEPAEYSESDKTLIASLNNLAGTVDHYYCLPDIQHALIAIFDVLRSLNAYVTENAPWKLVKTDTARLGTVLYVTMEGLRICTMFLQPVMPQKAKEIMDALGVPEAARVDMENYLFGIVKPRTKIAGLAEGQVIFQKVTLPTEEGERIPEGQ

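Primary screen of methionyl-tRNA synthetase; the read-out is not stated. Target: Methionyl-tRNA synthetase (putative), Leishmania donovani (UniProt E9BF75). The test concentration is not given. Values are per cent inhibition. Size under these conditions: about 68,000 compounds, about 24 of them at 50% or above in at least one test.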

Results are percentages, as filed. How 0% and 100% were set is not recorded. Most values in the screen are low, and negative values occur. The compounds are a random part of those screened. Two or more numbers in one place are separate tests of the same structure; such repeats can differ widely.

Compound: Cc1ccc(-c2nc(C(=O)N(C)CC(=O)N(C)C)cs2)c(C)c1
inhibition: 6.991

Compound: NC(=O)CN1CCC(NCc2cc(C(F)(F)F)ccc2Cl)CC1
inhibition: 2.801

Compound: COC(=O)c1ccc(N2CCN(C(=O)c3cc(C)on3)C(C)C2)cc1 (stereo not drawn)
inhibition: 8.92

Compound: O=C(O)c1cc2c(nc1N1CCCC1)CCN(C1CCOCC1)CC2
inhibition: 0

Compound: CSCCC1c2nc[nH]c2CCN1Cc1ccnc2ccccc12 (stereo not drawn)
inhibition: 17.56

Compound: O=C(Nc1cccnc1)[C@H]1CO[C@H]2CCNC[C@H]2C1
inhibition: 9.589

Compound: CNC(=O)N1CCC2(CC1)CC[C@@]1(C(=O)NC)CN(S(C)(=O)=O)C[C@@H]21
inhibition: 10.66

Compound: Fc1ccc(CN2CCCC2c2cncc(-n3ccnc3)n2)cc1 (stereo not drawn)
inhibition: 18.53

Compound: CCOC(=O)CC(c1cccc(OC)c1OC)c1c(C)[nH][nH]c1=O (stereo not drawn)
inhibition: 17.16 & 14.48

Compound: COC[C@@]12CCO[C@@H]1CCN(C(=O)COc1ccccc1OC)C2
inhibition: 11.5

Compound: O=C(c1cccc(CO)n1)N1CCOC(c2ccc(Cl)c(Cl)c2)C1 (stereo not drawn)
inhibition: 15.16

Compound: O=C(c1ccc[nH]1)N1CCO[C@]2(CCC[C@@H]2COc2cccnc2)C1
inhibition: 13.33

Compound: CCC(C)(C)NC(=O)c1ccc(-c2ccco2)[nH]c1=O
inhibition: 8.6

Compound: CCn1cc(NC(=O)C2CCC(=O)N2Cc2ccc(C)o2)cn1 (stereo not drawn)
inhibition: 6.475

Compound: CC(=O)N1CCCN(C(=O)NCc2ccc(Cl)s2)CC1
inhibition: 11.75

Compound: CCN(CC)C(=O)Nc1ccc(C(=O)N(C)C)c(C)c1
inhibition: 12.63

Compound: CN(C)CCN1CCC(NC2CSCCc3ccccc32)CC1 (stereo not drawn)
inhibition: 22.3

Compound: Cc1ccc(CNC(C)c2ccc3[nH]c(=O)[nH]c3c2)s1 (stereo not drawn)
inhibition: 10.46

Compound: O=C(NCC1CCCCC1)NC1CCCc2c1cnn2CCO (stereo not drawn)
inhibition: 22.81

Compound: CN(C)[C@@H]1CCN(C(=O)c2ccsc2)[C@H]1Cc1cccnc1
inhibition: 2.985

Compound: COc1ccc(CN2CCC3(CC(=O)N(c4cccc(F)c4)C3)C2)cc1 (stereo not drawn)
inhibition: 4.467

Compound: CC(=O)c1ccc(C(=O)NCC2Cc3ccccc3O2)s1 (stereo not drawn)
inhibition: 10.37

Compound: OC(CN1CCCCc2ccccc21)Cn1cccn1 (stereo not drawn)
inhibition: 10.14

Compound: O=C(NCCN1CCOCC1)c1ccc(-n2ccc3ccccc32)s1
inhibition: 13.73

Compound: CNc1nc2c(s1)C(c1cccc(Cl)c1Cl)CC(=O)N2 (stereo not drawn)
inhibition: 18.7

Compound: Cc1ccc(-c2n[nH]cc2CNCCn2cccn2)o1
inhibition: 6.7

Compound: COCC(=O)N1CC[C@H]2C[C@H](c3nnc(C4CC4)o3)O[C@@H]2C1
inhibition: 11.23

Compound: CCC(C)(C)n1nnnc1C(c1cccs1)N1CCCCC1 (stereo not drawn)
inhibition: 11.01

Compound: CC(C)[C@H]1COC(=O)N1Cc1noc(-c2ccccc2)n1
inhibition: 13.4

Compound: O=C(NCCN1CCOCC1)c1nc2ccccc2c(=O)[nH]1
inhibition: 14.85

Compound: O=C(Cn1cncn1)NCC1(O)CCCc2ccccc21 (stereo not drawn)
inhibition: 9.253

Compound: COc1cccc2c1OCC(CNc1ccc(C)nn1)C2 (stereo not drawn)
inhibition: 4.167

Compound: Cc1c(C(=O)OCC2CC(=O)N(c3ccccc3)C2)cnn1C(C)C (stereo not drawn)
inhibition: 6.793

Compound: CCc1nnsc1C(=O)N1CCCC(c2nc3ccccc3[nH]2)C1 (stereo not drawn)
inhibition: 12.54

Compound: COCCO[C@H]1CCN(C(=O)C2CCOCC2)[C@H]1Cc1ccncc1
inhibition: 3.833

Compound: Cc1noc(C)c1CCCNC(=O)C1CCCN(C(=O)C2CC2)C1 (stereo not drawn)
inhibition: 10.42

Compound: CCC(C)NC(=O)c1nn(C)c(NC(=O)c2ccccc2OC)c1F (stereo not drawn)
inhibition: 18.28

Compound: O=C(NCCCN1CCOCC1)c1nc(-c2ccc3cc[nH]c3c2)no1
inhibition: 16.06

Compound: N#Cc1cnn(-c2ccc(C(=O)Nc3ccccn3)cc2)c1N
inhibition: 4.225

Compound: CC(=O)c1cc(C(=O)N2Cc3ccccc3OC3(CCOCC3)C2)cs1
inhibition: 15.43

Compound: CCN(Cc1cccc(Cl)c1)Cn1nc(C)c2c(C)onc2c1=O
inhibition: -0.6536

Compound: CCNC(=O)CN(CC)C(=O)c1csc(Cc2ccccc2F)n1
inhibition: 15.87

Compound: O=C(N1CCCC1)N1CCn2c(Cn3cccn3)cnc2C1
inhibition: 4.762

Compound: CCn1cnnc1CNC(=O)N1CCN(c2ccccc2Cl)CC1
inhibition: 11.68

Compound: CCCc1nnc(NC(=O)N2CCCC(NC(C)=O)C2)s1 (stereo not drawn)
inhibition: 10.57

Compound: Cc1nc2nc(C)c3c(=O)n(-c4ccn[nH]4)ccc3n2n1
inhibition: 3.846

Compound: Fc1cc(CN2CCOC3(CCOCC3)C2)ccc1OC(F)F
inhibition: 10.42

Compound: Nc1ccnc(N2C[C@H](O)[C@@H](N3CCN(c4ccccn4)CC3)C2)n1
inhibition: 7.434

Compound: Cc1cc(C)nc(NCCC(=O)NCCn2ccc3ccccc32)n1
inhibition: 3.333

Compound: Cc1nc(C#N)c(N2CCC(c3nc(-c4ccc(F)cc4)no3)CC2)o1
inhibition: 1.863

Compound: CCc1ccc(CN(C)C(=O)c2cnc3c(c2)nc(N)n3CC)nc1
inhibition: 16.42

Compound: Cc1cc(C)nc(N2CCC(c3nnc(CN(C)C)n3C3CC3)CC2)n1
inhibition: 13.86

For reference, 4 entries once more:

* O=C(O)c1cc2c(nc1N1CCCC1)CCN(C1CCOCC1)CC2 : 0%
* CCNC(=O)CN(CC)C(=O)c1csc(Cc2ccccc2F)n1 : 15.87%
* CSCCC1c2nc[nH]c2CCN1Cc1ccnc2ccccc12 (stereo not drawn) : 17.56%
* COC[C@@]12CCO[C@@H]1CCN(C(=O)COc1ccccc1OC)C2 : 11.5%

The values are deposited in ChEMBL (CHEMBL3988442, “University of Dundee, Small-Polar-MMV Screening Library” (2021)).